Data reported in PubChem BioAssay AID504834 (National Center for Advancing Translational Sciences (NCATS), 2011).
Among all 320,000 compounds or so, about 22,000 (6.9%) were called active. Inconclusive means that the source gave no clear call. Such entries were picked first, then a sample of the others. Calls come from the whole dose curve; as a rule, active = well fitted inhibition curve with a large enough effect; inconclusive = small, poorly fitted or top-dose-only effect, or another doubt; inactive = no such curve, though single readings can be large or run the other way. A potency beside an inconclusive call is a rough fit, not a confirmed value. Where a structure was tested more than once in an assay, its records may differ in their call.
Potency is the fitted concentration of half-maximal effect.

Experiment: Primary qHTS for delayed death inhibitors of the malarial parasite plastid, 96 hour incubation
Conditions: P. falciparum luciferase reporter growth; series mostly up to 28.7 µM
In short: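 Readout is luminescence from an integrated firefly luciferase in P. falciparum. Red cells, 2% hematocrit and 0.05% parasitemia final, were cultured with compound through two parasite generations (96 hours) at 37 C, 5% CO2.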
For `O=C(Nc1ccccc1)c1sc(N2CCOCC2)nc1-c1ccccc1`, the Potency was inconclusive: 1.47 µM [inhibitor, partial curve, poor fit].
With `CCOC(=O)[C@H](CCc1ccccc1)N[C@@H](C)C(=O)N1CCC[C@H]1C(=O)O` the Potency was active: 6.01 µM.
In the case of `COc1ccc(S(=O)(=O)N2CCc3ccccc32)cc1C(=O)O`, the Potency is reported as “inactive”.
In the case of `O=C(O)CC(NC(=O)CCC1CCCCC1)c1cc([N+](=O)[O-])ccc1Cl` (stereo not given), the Potency is reported as inconclusive: 9.28 µM [inhibitor, partial curve, poor fit].
With `COCCCn1cnc2c(c1=O)c1nc3ccccc3nc1n2-c1ccc(C)cc1` the Potency was inconclusive: 18.5 µM [inhibitor, single point].
For `CCOCCn1c(-c2ccc(OC)cc2)nc2ccccc21`, the Potency was “inactive”.
With `OCC[C@@H]1C[C@H](O)[C@@H](O)[C@]2(Cc3ccccc3O2)O1` the Potency was inconclusive: 0.0033 µM [inhibitor, full curve, poor fit].
For `O=C(c1ccc(S(=O)(=O)N2CCCCC2)cc1)N1CCN(Cc2ccc3c(c2)OCO3)CC1`, the Potency was inconclusive: 10.4 µM [inhibitor, partial curve, poor fit].
In the case of `CCOc1ccc(S(=O)(=O)N2CCOCC2)cc1NC(=O)C1CSC2(C)CCC(=O)N12` (stereo not given), the Potency is reported as “inactive”.
In the case of `CCN(CC)S(=O)(=O)c1ccc(N2Cc3ccccc3C2=N)cc1`, the Potency is reported as “inactive”.
For `CNC(=S)N1CCC(NC(=O)C(Cc2ccc(F)cc2)NC(C)=O)CC1` (stereo not given), the Potency was inconclusive: 18.5 µM [inhibitor, single point].
With `C=CCc1cccc([C@@H]2[C@@H](C)CC[C@H]3C(=O)N4[C@@H](c5cc(OC)c(OC)c(OC)c5)c5[nH]c6ccccc6c5C[C@H]4C(=O)N23)c1` the Potency was inconclusive: 5.86 µM [inhibitor, partial curve, poor fit].
In the case of `Cc1nn2cc(-c3ccccc3)nc2[nH]c1=O`, the Potency is reported as active: 0.657 µM.
For `O=[N+]([O-])c1ccc(OCCCCN2CCc3ccccc3C2)cc1`, the Potency was inconclusive: 5.22 µM [inhibitor, partial curve].
With `Cc1c(O)nc(SCC(=O)Nc2ccc3c4c(cccc24)CC3)n(-c2ccccc2)c1=O` the Potency was inconclusive: 11.7 µM [inhibitor, single point].
In the case of `Cc1ccccc1-c1nc(CN2CCC(C(=O)NCC3CCCO3)CC2)c(C)o1` (stereo not given), the Potency is reported as inconclusive: 0.522 µM [inhibitor, full curve, poor fit].
In the case of `O=C(O)C(Cc1ccc(F)cc1)c1ccccc1` (stereo not given), the Potency is reported as active: 3.29 µM.
In the case of `CN(Cc1ccccc1)S(=O)(=O)c1ccc(Cl)c(C(=O)NCCCN2CCOCC2)c1`, the Potency is reported as “inactive”.
With `Cn1c2c(c(=O)c3ccccc31)CCCC2` the Potency was inconclusive: 18.5 µM [inhibitor, single point].
With `Cc1ccccc1NC(=O)CN(C)S(=O)(=O)c1ccc(-c2ccc(=O)[nH]n2)s1` the Potency was inconclusive: 18.5 µM [inhibitor, single point].
With `COc1ccc(C(=O)Nc2c(Cl)cc(Cl)cc2C(=O)NCc2ccco2)cc1` the Potency was inconclusive: 9.28 µM [inhibitor, single point].
With `COc1ccc(NC(=O)CN2C(=O)COc3ccc(C)cc32)cc1` the Potency was inconclusive: 18.5 µM [inhibitor, single point].
For `CCCNC(=O)c1cc(S(=O)(=O)N2CCc3ccccc32)cn1C`, the Potency was “inactive”.
In the case of `COc1ccccc1N1CCN(C(=O)C(Cc2ccccc2)NC(=O)C2CCCCC2)CC1` (stereo not given), the Potency is reported as “inactive”.
In the case of `CC(C)(O)C(=O)NNC(=S)Nc1ccc(F)c(Cl)c1`, the Potency is reported as “inactive”.
For `CC(=O)/C(C=Nc1noc(C)c1Br)=C(\C)O`, the Potency was “inactive”.
With `CC1CC(C)CN(CCCNC(=O)CCNC(=O)Cn2ccc3ccccc3c2=O)C1` (stereo not given) the Potency was active: 5.22 µM.
For `O=c1[nH]c(C(Cl)Cl)nc2sc3c(c12)CCN(Cc1ccccc1)C3`, the Potency was inconclusive: 18.5 µM [inhibitor, single point].
In the case of `Cc1ccc2c(c1)c1c(n2CC(O)CNC2CCCC2)CCCC1` (stereo not given), the Potency is reported as inconclusive: 2.94 µM [inhibitor, full curve].
For `COC(=O)Cn1c(=O)c2c(n(Cc3ccccc3)c1=O)N/C(=C/c1ccc(OC)cc1)C2=O`, the Potency was inconclusive: 9.28 µM [inhibitor, partial curve, poor fit].
With `CCOC(=O)N1CCN(c2c(NCc3ccc(Cl)cc3)c(=O)c2=O)CC1` the Potency was “inactive”.
In the case of `COc1ccccc1CNC(=O)c1cnc2ccccn2c1=O`, the Potency is reported as inconclusive: 11.7 µM [inhibitor, single point].
For `O=P(c1ccccc1)(c1ccccc1)C(c1ccccn1)P(=O)(c1ccccc1)c1ccccc1`, the Potency was active: 9.28 µM.
For `CCCCc1nnc(NC(=O)CCN2C(=O)C3CC=CCC3C2=O)s1` (stereo not given), the Potency was inconclusive: 10.4 µM [inhibitor, partial curve, poor fit].
With `Cc1ccc(/C=N/n2nnnc2N)cc1[N+](=O)[O-]` the Potency was inconclusive: 0.415 µM [inhibitor, full curve, poor fit].
For `COc1ccc(CC(=O)N2CCN(c3ccccc3)CC2)cc1`, the Potency was “inactive”.
In the case of `COc1ccccc1NC(=O)C(C)NC(c1ccccc1)c1ccccc1` (stereo not given), the Potency is reported as active: 8.28 µM.
With `CCCCn1nnc(NC(=S)NC(=O)c2cccs2)n1` the Potency was inconclusive: 5.22 µM [inhibitor, single point].
For `N#Cc1c(N)n(CCOC(=O)c2cccc(Br)c2)c2nc3ccccc3nc12`, the Potency was inconclusive: 14.7 µM [inhibitor, partial curve, poor fit].
With `C=C(C)C(=O)Nc1nnc(-c2cccs2)s1` the Potency was “inactive”.
In the case of `CCc1ccccc1NC(=O)CN1CCN(C(=O)c2cccc(-n3cnnn3)c2)CC1`, the Potency is reported as inconclusive: 2.33 µM [inhibitor, full curve].
For `CCOc1ccccc1C(=O)N/N=C/c1coc2ccc(Cl)cc2c1=O`, the Potency was inconclusive: 18.5 µM [inhibitor, single point].
With `COc1ccc(NC(=O)c2cc(NC(=O)C3CCCCC3C(=O)O)ccc2N2CCOCC2)cc1` (stereo not given) the Potency was inconclusive: 18.5 µM [inhibitor, single point].
In the case of `CCN(CC)CCC(c1ccc(N(C)C)cc1)c1c(O)cc(OC)cc1OC` (stereo not given), the Potency is reported as active: 1.47 µM.
For `O=c1[nH]c2ccccc2n1CCCSCCCn1c(=O)[nH]c2ccccc21`, the Potency was active: 9.28 µM.
For `CN(C)S(=O)(=O)c1ccc(C(=O)N2CCC(c3nc4ccccc4o3)CC2)cc1`, the Potency was inconclusive: 11.7 µM [inhibitor, single point].
In the case of `Cc1ccccc1NC(=O)CSc1nc2ccc(Nc3nc(N4CCOCC4)nc(N4CCOCC4)n3)cc2s1`, the Potency is reported as inconclusive: 0.928 µM [inhibitor, partial curve].
In the case of `CCCC(C(=O)O)n1c(O)c(C=C2N=c3ccccc3=N2)sc1=S` (stereo not given), the Potency is reported as “inactive”.
For `CCOC(=O)C1=C(C)Nc2ccccc2N/C1=N\S(=O)(=O)c1ccc(Cl)cc1`, the Potency was “inactive”.
With `C[C@]12CC[C@@H]3c4ccc(O)cc4CC[C@H]3[C@@H]1C[C@@H](O)[C@@H]2O[C@@H]1O[C@H](C(=O)O)[C@@H](O)[C@H](O)[C@H]1O` the Potency was “inactive”.
With `O=C(Nc1ccccc1Cl)C1CCCN1C(=O)OCc1ccccc1` (stereo not given) the Potency was inconclusive: 20.8 µM [inhibitor, single point].
For `CCCn1c(C)cc(-c2csc(N)n2)c1C`, the Potency was inconclusive: 11.7 µM [inhibitor, single point].
In the case of `CCOC(=O)CC(NC(=O)CCS(=O)(=O)c1ccc2c(c1)n(C)c(=O)c(=O)n2C)c1ccc(C)cc1` (stereo not given), the Potency is reported as inconclusive: 18.5 µM [inhibitor, single point].
For `O=C(CCc1nc(-c2ccccc2)no1)NCc1ccccc1CN1CCOCC1`, the Potency was inconclusive: 10.4 µM [inhibitor, partial curve].
For `COC(=O)CCC[C@H]1CC2(C[C@H](CCCO[Si](C)(C)C(C)(C)C)N1C(=O)OC(C)(C)C)OCCO2`, the Potency was “inactive”.
With `CC(=O)NC(c1ccc2ccccc2c1)c1ccc2cccnc2c1O` (stereo not given) the Potency was “inactive”.
In the case of `COc1cccc(CN(C)C(=O)c2ccc3c(=O)n4c(nc3c2)CCC4)c1OC`, the Potency is reported as “inactive”.
For `CCOC(=O)c1c(CN(C)C)n(C)c2c(O)c(N=NC(N)=O)c3ccc(Br)cc3c12`, the Potency was “inactive”.
With `COC(=O)c1cc(Cl)c(NC(=O)C(C)C)cc1OC` the Potency was inconclusive: 10.4 µM [inhibitor, single point].
For `CCOC(=O)C(Cc1c(F)cccc1F)(NC(C)=O)C(=O)OCC`, the Potency was inconclusive: 1.04 µM [inhibitor, partial curve, poor fit].
For `Oc1c(Br)cc(Br)cc1CNc1ccccn1`, the Potency was “inactive”.
With `O=[N+]([O-])c1cnc(N2CCCCC2)c([N+](=O)[O-])c1` the Potency was “inactive”.
With `CC(C)N1CCc2c(sc(NC(=O)Cc3ccccc3)c2C#N)C1` the Potency was inconclusive: 0.0928 µM [inhibitor, partial curve, poor fit].
With `COc1ccc(C(CCNCc2ccc(OC(C)C)cc2)c2ccccc2OC)cc1` (stereo not given) the Potency was active: 11.7 µM.
With `CCOC(=O)c1ccc(-n2c(CN3CCN(CCO)CC3)nc3ccc([N+](=O)[O-])cc3c2=O)cc1` the Potency was “inactive”.
For `Cc1ccc(C(=O)N/N=C\c2c(C)nn(-c3ccccc3)c2Cl)cn1`, the Potency was inconclusive: 18.5 µM [inhibitor, single point].
In the case of `COc1ccccc1NC(=O)c1csc2c1CCC(C)C2` (stereo not given), the Potency is reported as inconclusive: 18.5 µM [inhibitor, single point].
For `CC1(C)CC(=O)C2=C(C1)Nc1cc(C(=O)c3ccccc3)ccc1NC2c1ccccn1` (stereo not given), the Potency was “inactive”.
With `COc1ccc(C(=O)CSc2nnc(NC(=O)C3CC(=O)N(c4cccc(OC)c4)C3)s2)cc1` (stereo not given) the Potency was inconclusive: 11.7 µM [inhibitor, single point].
With `CC(=O)Nc1nnc(SCc2cc(=O)c(OC(=O)c3ccccc3)co2)s1` the Potency was inconclusive: 0.465 µM [inhibitor, partial curve, poor fit].
